Results from PubChem BioAssay AID540276 (National Center for Advancing Translational Sciences (NCATS), 2011).
The whole screen tested about 300,000 compounds, of which about 5,400 (1.8%) were called active. Inconclusive means that the source gave no clear call. Such entries were picked first, then a sample of the others. Calls come from the whole dose curve; tested in HEK293 cells. Potencies beside an inconclusive call are fits to weak or partial responses and may not hold up.
% is set by controls: 0 for no effect and ±100 for the full control effect; potency is the fitted concentration of half-maximal effect.

Assay: qHTS for inhibitors of binding or entry into cells for Marburg Virus
Details: Marburg virus pseudotyped entry inhibition, cell reporter; activity change, negative = inhibition: at 37.8 µM (top of the series) unless noted
With `C=CCN1CC(COc2ccc(OC)cc2)OCCS1(=O)=O` (stereo not drawn) the Potency was inconclusive: 0.0031 µM [activator, full curve, poor fit].
For `CCCCC(=O)Nc1ccc2c(c1)nc1n2CCSC1`, the “activity change, negative = inhibition” value was inactive: -23.6%.
In the case of `CCOc1cc(NC(=O)C2CC2)c(OCC)cc1NC(=O)CCn1nnc2ccccc21`, the “activity change, negative = inhibition” value is reported as inactive: 1.7%.
With `CC(C)OC(=O)/C(C#N)=C/c1cn(C)c2ccccc12` the Potency was inconclusive: 5.01 µM [activator, single point].
In the case of `Cc1onc(-c2ccccc2Cl)c1C(=O)N1CCCCCC1`, the Potency is reported as inconclusive: 5.62 µM [activator, full curve, poor fit].
For `CCSc1nnc(NC(=O)NC(CC)(C(F)(F)F)C(F)(F)F)s1`, the Potency was inconclusive: 22.4 µM [inhibitor, single point].
In the case of `COc1ccccc1CNC(=O)C(C)NS(=O)(=O)c1ccc(Br)cc1` (stereo not drawn), the Potency is reported as inconclusive: 0.891 µM [activator, full curve, poor fit].
In the case of `CN(C)/C(=N\S(=O)(=O)c1ccccc1)c1ccccc1`, the Potency is reported as inconclusive: 35.5 µM [activator, single point].
With `Cc1ccc(C(=O)n2cnc3ccccc32)cc1C` the “activity change, negative = inhibition” value was inactive: 13.1% [at 46.1 µM].
For `COc1ccccc1N(CC(=O)N/N=C(\C)c1ccccc1O)S(=O)(=O)c1ccc(C)cc1`, the Potency was inconclusive: 12.6 µM [inhibitor, partial curve, poor fit].
In the case of `COc1ccc(N/C=C/c2nc(SC)nnc2C)cc1`, the Potency is reported as inconclusive: 35.5 µM [inhibitor, single point].
With `O=C(Nc1ccc2nc(SCC(=O)N3CCc4ccccc43)sc2c1)c1cccc(Cl)c1` the “activity change, negative = inhibition” value was inactive: 24.4% [at 46.1 µM].
With `CCOC(=O)Cn1c(-c2cccnc2)nc(-c2ccccc2)c1-c1ccccc1` the Potency was inconclusive: 35.5 µM [inhibitor, partial curve, poor fit].
With `CCC(C)C(NC(=O)OCc1ccccc1)C(=O)NCC(c1ccccc1)N(C)C` (stereo not drawn) the Potency was inconclusive: 11.2 µM [inhibitor, partial curve, poor fit].
In the case of `COc1ccc(-c2ccc(CCC(=O)O)n2CC(=O)Nc2ccccc2C)cc1`, the “activity change, negative = inhibition” value is reported as inactive: -15.2% [at 46.1 µM].
In the case of `C=C1C(=O)C23C(O)C1CCC2C12CCCC(C)(COC(C)=O)C1C(O)C3(O)OC2` (stereo not drawn), the Potency is reported as inconclusive: 2.24 µM [inhibitor, full curve, poor fit].
For `CCN1CC2(COC(=O)c3ccccc3N)CCC(OC)C34C5CC6C(OC)CC(O)(C5C6OC)C(O)(C(OC)C23)C14` (stereo not drawn), the “activity change, negative = inhibition” value was inactive: 26.1%.
In the case of `COc1ccc(N2CCN(C(=O)[C@H](C)N3C(=O)C4CC=CCC4C3=O)CC2)cc1` (stereo partly drawn), the Potency is reported as inconclusive: 7.94 µM [inhibitor, partial curve, poor fit].
In the case of `CSc1ncccc1C(=O)N1CCN(S(=O)(=O)c2cc(C)ccc2C)CC1`, the “activity change, negative = inhibition” value is reported as inactive: 3.99% [at 46.1 µM].
For `COc1ccc(NC(=O)CCC(=O)OCc2ccc(Br)cc2)cc1`, the Potency was inconclusive: 1.78 µM [activator, partial curve, poor fit].
With `COc1ccc2cc(CN(CC3CCCO3)C(=S)Nc3ccccc3)c(=O)[nH]c2c1` (stereo not drawn) the Potency was inconclusive: 3.98 µM [inhibitor, full curve, poor fit].
In the case of `Nc1nonc1-n1nnc(C(=O)O)c1-c1cccs1`, the Potency is reported as inconclusive: 35.5 µM [activator, single point].
With `CS(=O)(=O)c1ccccc1C(=O)N1CCN(Cc2ccccc2)CC1` the “activity change, negative = inhibition” value was inactive: 9.27% [at 46.1 µM].
In the case of `Cc1cc(Br)ccc1NC(=O)CN(C)C(=O)Cn1c(=O)cnc2ccccc21`, the “activity change, negative = inhibition” value is reported as inactive: -3.95%.
With `CCOc1ccc2nc(C)cc(Nc3ccc(N4CCOCC4)cc3)c2c1` the Potency was inconclusive: 1.64 µM [inhibitor, full curve, poor fit].
In the case of `COc1ccccc1N1CCN(C(=O)c2cc(-c3ccc(F)cc3)on2)CC1`, the Potency is reported as inconclusive: 6.31 µM [activator, partial curve, poor fit].
In the case of `CCCCOc1ccc(N(CC(=O)NC(C)(C)CC)C(=O)CCC(=O)Nc2ccccn2)cc1`, the Potency is reported as active: 8.91 µM.
In the case of `COc1ccccc1/C=C/C=N/NC(=O)c1ccncc1`, the Potency is reported as inconclusive: 7.08 µM [inhibitor, full curve, poor fit].
In the case of `COc1ccc(NC(=O)c2ccc(S(=O)(=O)N(C)C)cc2)cc1OC`, the Potency is reported as inconclusive: 31.6 µM [activator, single point].
In the case of `N#C/C(=C\c1c(F)cccc1Cl)S(=O)(=O)c1ccccn1`, the “activity change, negative = inhibition” value is reported as inactive: -3.9%.
In the case of `O=C(COc1ccc(-c2nnco2)cc1)N1CCOCC1`, the “activity change, negative = inhibition” value is reported as inactive: 0.657%.
In the case of `O=C(CSc1nnc(NC(=O)c2c(F)cccc2F)s1)NCC1CCCO1` (stereo not drawn), the “activity change, negative = inhibition” value is reported as inactive: -4.24%.
With `Cc1ccc(C(=O)O/N=C(\N)c2cccc([N+](=O)[O-])c2)cc1` the “activity change, negative = inhibition” value was inactive: 0.185%.
For `O=c1oc2ccccc2c(O)c1/C=C1\C=Nc2ccccc21`, the “activity change, negative = inhibition” value was inactive: 6.67%.
With `CCOC(=O)C1C(=O)C=C(c2ccc([N+](=O)[O-])cc2)CC1c1ccccc1` (stereo not drawn) the Potency was inconclusive: 20.6 µM [inhibitor, partial curve].
In the case of `N#CC1=C(N)C(C#N)(C#N)[C@H](c2cccnc2)[C@H]2CN(C(=O)OCc3ccccc3)CC=C12`, the “activity change, negative = inhibition” value is reported as inactive: -26.5%.
With `Nc1c(-c2cccc([N+](=O)[O-])c2)nc2ccccn12` the Potency was inconclusive: 3.98 µM [activator, single point].
For `N#Cc1c(-c2ccc(Cl)cc2)n(O)c2ccccc12`, the Potency was active: 8.91 µM.
With `COc1cc(NC(=S)Nc2cccnc2)cc(OC)c1` the “activity change, negative = inhibition” value was inactive: 2.98%.
In the case of `COCCNc1nc(-n2nc(C)cc2C)nc2sc3c(c12)CCCC3`, the Potency is reported as inconclusive: 17.8 µM [inhibitor, single point].
In the case of `CCN1CCN(C(=O)/C=C/c2ccc(F)cc2)CC1`, the “activity change, negative = inhibition” value is reported as inactive: 9.96% [at 46.1 µM].
For `Cc1ccc(NC(=O)C(=O)c2cc(C)n(-c3ccc(F)cc3)c2C)cc1C`, the “activity change, negative = inhibition” value was inactive: 19.6% [at 46.1 µM].
For `CC(=O)Nc1ccc(-c2nnc(SCc3ccc(C)cc3)n2C)cc1`, the Potency was inconclusive: 6.51 µM [inhibitor, single point].
For `CCCCC(=O)NC(=S)NNC(=O)c1ccc(OC)cc1`, the Potency was inconclusive: 10 µM [inhibitor, partial curve, poor fit].
For `O=C(Cc1ccccc1)Nc1ccc(S(=O)(=O)N2CCCC2)cc1`, the “activity change, negative = inhibition” value was inactive: 22.7% [at 46.1 µM].
For `S=C(NCc1ccccc1)N1CCN(Cc2ccc3c(c2)OCO3)CC1`, the Potency was inconclusive: 0.891 µM [activator, full curve, poor fit].
For `CCOC(=O)c1c(NC(=O)C2COc3ccccc3O2)sc2c1CCN(Cc1ccccc1)C2` (stereo not drawn), the “activity change, negative = inhibition” value was inactive: -8.96%.
In the case of `Cc1ccccc1Nc1nc(N)nc(CSc2nnc(C)n2C)n1`, the “activity change, negative = inhibition” value is reported as inactive: 12.3% [at 46.1 µM].
With `COc1ccc(NC(=O)CN(C)C(=O)Cc2ccc(-c3ccccc3)cc2)cc1` the “activity change, negative = inhibition” value was inactive: 8.85%.
In the case of `N#CCOc1nc(N2CCCC2)nc(N2CCCC2)n1`, the “activity change, negative = inhibition” value is reported as inactive: 2.58%.
With `CN1C(=O)COC2CCC(C(=O)C3=C(C(=O)O)CCCC3)CC21` (stereo not drawn) the “activity change, negative = inhibition” value was inactive: 11.3%.
For `Cc1cc(=O)c2ccccc2[nH]1`, the “activity change, negative = inhibition” value was inactive: 23.9%.
For `COc1ccc(S(=O)(=O)c2ccc(OC)cc2)cc1`, the Potency was inconclusive: 35.5 µM [inhibitor, single point].
In the case of `CCN(CC)CCc1c(C)[nH]c(C(=O)OCc2ccccc2)c1C`, the Potency is reported as active: 25.9 µM.
With `O=[N+]([O-])c1cccc(/C=N/Nc2nc(N3CCOCC3)nc(N3CCOCC3)n2)c1` the Potency was inconclusive: 0.891 µM [inhibitor, full curve, poor fit].
For `CC1CCCC(=NNc2ccc3ccccc3n2)C1` (stereo not drawn), the Potency was inconclusive: 35.5 µM [inhibitor, single point].
With `CCOC(=O)Cc1csc(NC(=O)Nc2cccs2)n1` the Potency was inconclusive: 28.2 µM [inhibitor, single point].
In the case of `C=CCn1c(SCC(=O)c2ccc(Cl)cc2)nnc1-c1ccc2c(c1)OCO2`, the Potency is reported as inconclusive: 1.78 µM [inhibitor, partial curve, poor fit].
With `COc1ccc(S(=O)(=O)N2CCOCC2)cc1NC(=O)c1cccc2c(=O)c(C)c(-c3ccccc3)oc12` the Potency was inconclusive: 15.8 µM [inhibitor, single point].
With `COc1ccc(NC(=O)C(Cl)=C(Cl)Cl)cn1` the Potency was inconclusive: 12.6 µM [inhibitor, single point].
With `COc1ccc([C@@H]2NC3=C(CCC3)[C@@]3(C#N)C(OC)(OC)N=C(N)[C@]23C#N)cc1` the “activity change, negative = inhibition” value was inactive: -6.22%.
For `O=C(O)c1c(-c2ccc(Cl)cc2)cn2ccccc12`, the Potency was inconclusive: 6.31 µM [activator, single point].
With `O=C1Cc2ccccc2Sc2ccc(O)cc21` the Potency was inconclusive: 0.631 µM [activator, single point].
In the case of `CC(=O)Nc1ccc(Oc2cc(C#N)c(C#N)cc2N2CCCCCC2)cc1`, the Potency is reported as inconclusive: 12.6 µM [inhibitor, partial curve, poor fit].
With `COCC1CCCN(C(=O)c2cc(COc3cncc(Cl)c3)on2)C1` (stereo not drawn) the “activity change, negative = inhibition” value was inactive: 20.8% [at 46.1 µM].
For `S=C(NCc1ccccc1)Nc1ccc2ccccc2c1`, the Potency was inconclusive: 6.31 µM [activator, single point].
For `Cc1ccc(CNc2ccc(N3C(=O)CCCC3=O)cc2[N+](=O)[O-])cc1`, the “activity change, negative = inhibition” value was inactive: 1.5%.
In the case of `Cc1ccccc1NC(=O)/C(C#N)=C\c1cccnc1`, the “activity change, negative = inhibition” value is reported as inactive: -1.82%.
For `CC(=O)Nc1cccc(NC(=O)c2cccc(-c3ccc(O)cc3)c2)c1`, the Potency was inconclusive: 8.91 µM [inhibitor, single point].
With `COc1ccc(-c2nsc(SCC(=O)Nc3ccc4c(c3)OCO4)n2)cc1` the Potency was inconclusive: 3.55 µM [activator, single point].
With `Cc1ccc(S(=O)(=O)CCC(=O)c2cccc([N+](=O)[O-])c2)cc1` the Potency was inconclusive: 1.58 µM [inhibitor, partial curve, poor fit].
With `Cc1ccc2nc(CNC(=O)c3ccccc3)[nH]c2c1` the Potency was inconclusive: 12.6 µM [activator, single point].
In the case of `CN(C)c1ccc(C2(c3ccc(N(C)C)cc3)OC(=O)c3cc(N)ccc32)cc1`, the Potency is reported as inconclusive: 15.8 µM [inhibitor, single point].
